Experimental data from paper PMC6193130.
Results are given in words; binding and its absence hold for the method and conditions named. In cells and extracts the contact can be indirect. Some binding calls cover weakened binding; strength is not graded here.

The chains behind the UniProt entries cited, without tags or fusion partners.
UniProt O95477: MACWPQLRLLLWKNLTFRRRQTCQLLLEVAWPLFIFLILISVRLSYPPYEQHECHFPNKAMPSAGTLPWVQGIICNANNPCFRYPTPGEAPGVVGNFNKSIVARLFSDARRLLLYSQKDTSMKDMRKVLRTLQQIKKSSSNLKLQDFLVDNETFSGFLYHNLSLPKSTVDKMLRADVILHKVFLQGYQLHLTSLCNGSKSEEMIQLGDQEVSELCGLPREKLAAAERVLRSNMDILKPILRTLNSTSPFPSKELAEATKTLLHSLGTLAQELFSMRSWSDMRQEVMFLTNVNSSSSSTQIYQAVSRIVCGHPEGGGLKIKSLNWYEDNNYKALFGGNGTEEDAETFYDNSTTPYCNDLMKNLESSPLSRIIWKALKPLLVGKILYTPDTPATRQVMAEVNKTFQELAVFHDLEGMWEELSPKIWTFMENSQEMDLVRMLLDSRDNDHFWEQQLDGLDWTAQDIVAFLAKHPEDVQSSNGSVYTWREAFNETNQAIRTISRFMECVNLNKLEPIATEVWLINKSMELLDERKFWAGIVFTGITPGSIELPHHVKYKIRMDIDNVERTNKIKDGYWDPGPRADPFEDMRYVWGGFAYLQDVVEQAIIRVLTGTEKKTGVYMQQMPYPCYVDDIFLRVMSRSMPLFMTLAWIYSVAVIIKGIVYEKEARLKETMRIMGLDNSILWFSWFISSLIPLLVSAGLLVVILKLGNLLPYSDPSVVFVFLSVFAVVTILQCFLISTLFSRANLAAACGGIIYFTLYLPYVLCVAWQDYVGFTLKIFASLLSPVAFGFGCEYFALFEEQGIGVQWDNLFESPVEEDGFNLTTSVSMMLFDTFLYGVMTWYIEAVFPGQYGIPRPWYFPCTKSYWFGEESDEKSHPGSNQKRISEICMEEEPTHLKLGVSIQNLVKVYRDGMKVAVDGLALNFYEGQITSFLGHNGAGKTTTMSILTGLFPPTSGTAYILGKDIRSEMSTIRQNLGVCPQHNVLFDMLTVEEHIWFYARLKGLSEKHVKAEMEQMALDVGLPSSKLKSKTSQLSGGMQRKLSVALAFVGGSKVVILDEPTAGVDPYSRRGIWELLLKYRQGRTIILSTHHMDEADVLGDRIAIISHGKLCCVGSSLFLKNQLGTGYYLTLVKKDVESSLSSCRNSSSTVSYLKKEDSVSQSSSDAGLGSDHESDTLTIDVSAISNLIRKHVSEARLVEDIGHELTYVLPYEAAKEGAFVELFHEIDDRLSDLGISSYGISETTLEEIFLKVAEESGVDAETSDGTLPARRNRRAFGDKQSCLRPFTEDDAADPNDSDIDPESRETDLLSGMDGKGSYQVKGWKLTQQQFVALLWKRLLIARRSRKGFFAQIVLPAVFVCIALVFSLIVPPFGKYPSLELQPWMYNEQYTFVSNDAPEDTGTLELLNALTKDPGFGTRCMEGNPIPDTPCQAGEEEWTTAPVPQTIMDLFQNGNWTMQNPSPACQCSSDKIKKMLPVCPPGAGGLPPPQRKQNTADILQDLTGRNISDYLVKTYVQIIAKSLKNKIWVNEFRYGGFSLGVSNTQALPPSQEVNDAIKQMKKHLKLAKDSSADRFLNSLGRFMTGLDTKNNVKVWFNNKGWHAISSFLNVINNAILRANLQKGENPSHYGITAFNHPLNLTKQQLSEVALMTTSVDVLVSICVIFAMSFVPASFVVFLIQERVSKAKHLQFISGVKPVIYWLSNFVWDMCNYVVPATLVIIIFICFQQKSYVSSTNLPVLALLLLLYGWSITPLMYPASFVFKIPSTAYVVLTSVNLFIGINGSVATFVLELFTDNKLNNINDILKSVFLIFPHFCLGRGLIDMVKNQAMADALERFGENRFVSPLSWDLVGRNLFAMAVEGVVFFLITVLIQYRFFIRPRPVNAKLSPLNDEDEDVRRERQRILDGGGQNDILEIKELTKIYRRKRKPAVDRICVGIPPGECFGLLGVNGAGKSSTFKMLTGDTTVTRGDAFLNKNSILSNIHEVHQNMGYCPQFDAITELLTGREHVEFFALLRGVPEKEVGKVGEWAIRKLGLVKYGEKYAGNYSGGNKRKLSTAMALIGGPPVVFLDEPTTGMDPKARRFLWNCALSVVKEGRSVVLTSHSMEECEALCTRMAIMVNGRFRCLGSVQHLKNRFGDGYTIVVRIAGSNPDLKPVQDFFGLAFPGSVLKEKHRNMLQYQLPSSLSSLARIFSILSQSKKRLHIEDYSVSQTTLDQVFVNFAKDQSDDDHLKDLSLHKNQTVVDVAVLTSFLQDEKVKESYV

Columns and labels:
[1] = biological target: ATP-binding cassette transporter A1 (ABCA1) (human (endogenous in HEK293)) (UniProt O95477); assay: co-IP; cells with full-length and fragment ANXA1 plasmids; co-IP of ANXA1 constructs with ABCA1, blot
[2] = biological target: ATP-binding cassette transporter A1 (ABCA1) (human (endogenous in HEK293)) (UniProt O95477); assay: co-IP; as a1, from LPS-stimulated cells
[3] = biological target: ATP-binding cassette transporter A1 (ABCA1) (human (endogenous in HEK293)) (UniProt O95477); assay: co-IP; as a1, from LPS-stimulated cells; remark: listed apart in the source
[4] = biological target: ATP-binding cassette transporter A1 (ABCA1) (human (endogenous in HEK293)) (UniProt O95477); assay: co-IP; membrane proteins extracted from whole cell lysates; IP with anti-ABCA1 antibody overnight at 4°C, protein A/G PLUS-Agarose, blot; with or without EDTA; with or without TO901317

| binding [1] | binding [3] | binding [4] | Binder | binding [2] |
| --- | --- | --- | --- | --- |
| binds | – | – | C3 domain of ANXA1 (amino acids 196 to 274) (domain or fragment, UniProt P04083 196-274) EDLADSDARALYEAGERRKGTDVNVFNTILTTRSYPQLRRVFQKYTKYSKHDMNKVLDLELKGDIEKCLTAIVKCATSK | – |
| – | binds | binds | annexin A1 (ANXA1) (protein, UniProt P04083 1-346) MAMVSEFLKQAWFIENEEQEYVQTVKSSKGGPGSAVSPYPTFNPSSDVAALHKAIMVKGVDEATIIDILTKRNNAQRQQIKAAYLQETGKPLDETLKKALTGHLEEVVLALLKTPAQFDADELRAAMKGLGTDEDTLIEILASRTNKEIRDINRVYREELKRDLAKDITSDTSGDFRNALLSLAKGDRSEDFGVNEDLADSDARALYEAGERRKGTDVNVFNTILTTRSYPQLRRVFQKYTKYSKHDMNKVLDLELKGDIEKCLTAIVKCATSKPAFFAEKLHQAMKGVGTRHKALIRIMVSRSEIDMNDIKAFYQKMYGISLCQAILDETKGDYEKILVALCGGN | no binding (condition: with LPS stimulation of the cells) |
